This note sets out measurements from patent publication US10083341B2, “Cellular activity quantification using labeled probes” (Oregon Health & Science University, priority 2014, dated 2018).

The term IC50 denotes the point on the concentration scale where inhibition reaches its midpoint. Lower therefore signals greater potency.

In the assay the test system is MOLM-14 cells. Put plainly: Inhibitory concentrations (IC50, IC12.5) of kinase inhibitor panel for MOLM-14 cells. Format: cell-based. Particulars: Homo sapiens, concentration used for 48 h treatment.

Compound `Cc1ccc(NC(=O)c2ccc(CN3CCN(C)CC3)cc2)cc1Nc1nccc(-c2cccnc2)n1` [imatinib] gave an IC50 of 10 µM.
